For this test, the target named is Flag-tagged HCMV gB (HCMV) (UniProt P06473). Description: co-IP.

Protein sequences, listed by entry. Tags and fused reporters are not part of them. Residues count along the entry.
UniProt P06473, residues 32-906: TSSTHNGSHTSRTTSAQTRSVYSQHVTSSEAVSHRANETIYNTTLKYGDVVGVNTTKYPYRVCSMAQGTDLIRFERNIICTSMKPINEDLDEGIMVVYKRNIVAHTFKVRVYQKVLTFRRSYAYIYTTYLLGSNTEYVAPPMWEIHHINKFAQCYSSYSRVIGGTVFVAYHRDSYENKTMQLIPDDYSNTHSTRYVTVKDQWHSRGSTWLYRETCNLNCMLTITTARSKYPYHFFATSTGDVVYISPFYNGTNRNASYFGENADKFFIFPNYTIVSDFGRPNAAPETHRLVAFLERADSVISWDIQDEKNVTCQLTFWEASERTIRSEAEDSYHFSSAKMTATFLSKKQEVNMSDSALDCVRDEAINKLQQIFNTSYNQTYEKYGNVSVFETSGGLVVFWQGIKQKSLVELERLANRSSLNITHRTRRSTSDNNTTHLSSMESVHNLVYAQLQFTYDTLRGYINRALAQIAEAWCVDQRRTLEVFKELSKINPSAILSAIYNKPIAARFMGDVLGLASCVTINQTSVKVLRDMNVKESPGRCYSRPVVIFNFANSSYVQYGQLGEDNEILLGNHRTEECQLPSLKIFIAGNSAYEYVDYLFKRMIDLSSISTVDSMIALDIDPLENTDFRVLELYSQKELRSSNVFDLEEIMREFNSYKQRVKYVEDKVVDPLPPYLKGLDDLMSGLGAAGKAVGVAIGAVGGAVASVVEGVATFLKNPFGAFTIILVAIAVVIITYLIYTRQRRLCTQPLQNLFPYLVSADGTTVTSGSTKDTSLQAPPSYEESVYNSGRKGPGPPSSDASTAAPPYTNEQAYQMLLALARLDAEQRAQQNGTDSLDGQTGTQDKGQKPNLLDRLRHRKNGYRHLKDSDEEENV
UniProt P29317, residues 24-976: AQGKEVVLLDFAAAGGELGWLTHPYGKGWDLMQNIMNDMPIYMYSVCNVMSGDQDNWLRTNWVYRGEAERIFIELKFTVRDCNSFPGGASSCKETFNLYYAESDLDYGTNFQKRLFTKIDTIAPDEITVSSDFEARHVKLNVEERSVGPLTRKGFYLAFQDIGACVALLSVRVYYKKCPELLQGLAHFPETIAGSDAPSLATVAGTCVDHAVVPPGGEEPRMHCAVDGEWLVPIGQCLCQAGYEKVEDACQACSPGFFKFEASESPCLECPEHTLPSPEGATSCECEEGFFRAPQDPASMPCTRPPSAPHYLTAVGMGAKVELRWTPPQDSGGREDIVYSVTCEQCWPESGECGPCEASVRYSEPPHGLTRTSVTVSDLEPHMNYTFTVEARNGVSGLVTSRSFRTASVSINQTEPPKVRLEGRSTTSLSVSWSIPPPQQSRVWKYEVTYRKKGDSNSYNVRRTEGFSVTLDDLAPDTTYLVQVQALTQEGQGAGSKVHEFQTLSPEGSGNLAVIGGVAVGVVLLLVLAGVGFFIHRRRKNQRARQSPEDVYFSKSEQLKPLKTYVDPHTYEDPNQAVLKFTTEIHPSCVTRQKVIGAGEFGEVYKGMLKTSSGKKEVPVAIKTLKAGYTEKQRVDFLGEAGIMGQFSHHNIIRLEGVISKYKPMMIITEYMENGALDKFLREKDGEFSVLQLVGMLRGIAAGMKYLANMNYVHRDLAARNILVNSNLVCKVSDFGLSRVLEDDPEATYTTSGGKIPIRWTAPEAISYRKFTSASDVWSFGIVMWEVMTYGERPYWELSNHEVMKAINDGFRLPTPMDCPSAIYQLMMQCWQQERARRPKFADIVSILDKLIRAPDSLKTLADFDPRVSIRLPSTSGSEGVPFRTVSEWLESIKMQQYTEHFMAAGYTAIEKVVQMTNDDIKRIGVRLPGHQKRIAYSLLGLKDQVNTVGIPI

These are yes or no findings as the source states them, for the method shown. Binding seen in cells or lysates may run through a third protein.

With “Myc-tagged EphA2 (from UniProt P29317 24-976) (receptor)”, the binding result is on record as “no binding”.

Source of the values: article PMC10191332.
